From PubChem BioAssay AID1671190 (National Center for Advancing Translational Sciences (NCATS), 2021)
In all, about 580,000 compounds went through this assay and about 6,100 (1.1%) were called active. Inconclusive results (about 15%) are left out. Calls follow the shape of the dose curve; as a rule, active = well fitted inhibition curve with a large enough effect; inconclusive = small, poorly fitted or top-dose-only effect, or another doubt; inactive = no such curve, though single readings can be large or run the other way. Only a part is listed here, and it is no random draw. The source gives no active or inactive call for entries shown without one.

Protein sequences, listed by entry. Tags and fused reporters are not part of them. Lines headed by an entry give the natural chain unless they say otherwise; changes in a name come on top.
UniProt P18054: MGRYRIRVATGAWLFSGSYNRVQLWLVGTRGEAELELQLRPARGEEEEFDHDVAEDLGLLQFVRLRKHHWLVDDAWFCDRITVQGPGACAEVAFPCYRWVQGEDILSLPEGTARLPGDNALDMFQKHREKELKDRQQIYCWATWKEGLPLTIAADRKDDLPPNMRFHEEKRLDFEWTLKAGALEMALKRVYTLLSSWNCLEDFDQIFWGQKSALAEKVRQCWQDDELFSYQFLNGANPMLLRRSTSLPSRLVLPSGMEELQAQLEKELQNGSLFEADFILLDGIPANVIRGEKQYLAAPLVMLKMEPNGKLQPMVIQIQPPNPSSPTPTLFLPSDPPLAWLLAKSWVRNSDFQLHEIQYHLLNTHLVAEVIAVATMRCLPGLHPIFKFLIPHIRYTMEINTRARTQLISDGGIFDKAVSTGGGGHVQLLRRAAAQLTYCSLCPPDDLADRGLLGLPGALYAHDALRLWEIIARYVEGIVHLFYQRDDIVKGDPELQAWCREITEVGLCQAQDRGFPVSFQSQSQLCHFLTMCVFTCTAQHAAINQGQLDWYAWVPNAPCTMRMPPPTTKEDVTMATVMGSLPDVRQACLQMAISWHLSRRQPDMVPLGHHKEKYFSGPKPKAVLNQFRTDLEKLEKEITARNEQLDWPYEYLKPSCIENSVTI

molecular target: Polyunsaturated fatty acid lipoxygenase ALOX12 (Homo sapiens) (UniProt P18054); experiment: Primary qHTS assay for inhibitors of human arachidonate 12S-lipoxygenase (ALOX12): Round 2; details: purified 12hLO, xylenol orange hydroperoxide absorbance; activity change, negative = inhibition: at 0.00344 µM (top of the series) unless noted
Summary of the method: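 Purified human 12hLO (150 nM final) in 25 mM Hepes, 0.01% Triton X-100, pH 7.0 was preincubated 15 min at room temperature with compound. Then 40 uM arachidonic acid was added, 30 min. Hydroperoxide was read by Fe-XO absorbance ratio 573/405 nm.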
% is scaled to controls: 0 for no effect and ±100 for the full control effect; potency is read from the fitted curve at half-maximal effect.

`O=C(c1ccc(F)cc1Cl)N1CCC2(CC1)NC(=O)N(c1ccccc1Cl)N2` was tested. Which Potency did it give?
The Potency was active: 1.41 µM.

For `N[C@@H]1CONC1=O`, which activity change, negative = inhibition is on record?
Its activity change, negative = inhibition is 24.5%.

How did the Potency turn out when `CN(CCOc1ccccc1)C(=O)c1cc(-c2ccco2)nc2ccccc12` was run?
Its Potency is active: 31.6 µM.

How did the activity change, negative = inhibition turn out when `N[C@@H](Cc1c[nH]c2ccc(O)cc12)C(=O)O` was run?
Its activity change, negative = inhibition is -8.04%.

`C[N+](C)(C)CCCCCCCCCC[N+](C)(C)C` was tested. Which activity change, negative = inhibition did it give?
Its activity change, negative = inhibition is 2.15%.

`COc1ccc2c(c1)c1ccc3c(c1n2C)C(=O)C=CC3=O` was tested. Which Potency did it give?
Its Potency is active: 0.708 µM.

With `CN1CCC(Nc2ncc3ncnc(Nc4ccc(F)c(Cl)c4)c3n2)CC1` as the molecule, how does the activity change, negative = inhibition read?
The activity change, negative = inhibition was -0.789%.

With `O=C1C(c2[nH]c3ccccc3c2O)=Nc2ccccc21` as the molecule, how does the activity change, negative = inhibition read?
The activity change, negative = inhibition was 4.16%.

Which activity change, negative = inhibition does the source give for `Nc1ccc(S(=O)(=O)Nc2cnc3ccccc3n2)cc1` here?
Its activity change, negative = inhibition is 49.7%.

Which activity change, negative = inhibition does the source give for `COC(=O)N[C@H](C(=O)N[C@@H](Cc1ccccc1)[C@@H](O)CN(Cc1ccc(-c2ccccn2)cc1)NC(=O)[C@@H](NC(=O)OC)C(C)(C)C)C(C)(C)C` here?
The activity change, negative = inhibition was 19.9%.

Which activity change, negative = inhibition does the source give for `CC(C)(C)c1ccc(C(=O)CCCN2CCC(OC(c3ccccc3)c3ccccc3)CC2)cc1` here?
The activity change, negative = inhibition was 27.8%.

With `CC(Cc1ccccc1)=NNS(=O)(=O)c1ccc([N+](=O)[O-])cc1` as the molecule, how does the Potency read?
Its Potency is active: 20 µM.

Which Potency does the source give for `COc1cccc(C(c2sc3nc(C)nn3c2O)N2CCc3ccccc3C2)c1` (configuration not stated) here?
The Potency was active: 31.6 µM.

`COc1cc(OC)c(C=NNC(=S)NC23CC4CC(CC(C4)C2)C3)c(OC)c1` was tested. Which Potency did it give?
Its Potency is active: 12.6 µM.

How did the Potency turn out when `CCN1/C(=C\c2ccc3cc(C)ccc3[n+]2CC)Sc2cc(C)c(C)cc21` was run?
The Potency was active: 25.1 µM.

`Cc1cc(O)c(C(C)C)cc1Cl` was tested. Which activity change, negative = inhibition did it give?
Its activity change, negative = inhibition is -9.49%.

`CO/N=C(\C(=O)O)c1csc(NC(=O)CCl)n1` was tested. Which activity change, negative = inhibition did it give?
Its activity change, negative = inhibition is -21.8%.

How did the Potency turn out when `Cc1cccc([C@H]2[C@@H]3C=CCC[C@@H]3C(=O)N2Cc2ccccc2)c1` was run?
Its Potency is active: 28.2 µM.

How did the Potency turn out when `CCOc1cc(N2CCOCC2)c(OCC)cc1NC(=O)CSc1ncccc1C(=O)O` was run?
The Potency was active: 11.2 µM.

Which activity change, negative = inhibition does the source give for `CCOC(=O)[C@H](CCc1ccccc1)N[C@@H](C)C(=O)N(CC(=O)O)C1Cc2ccccc2C1` here?
The activity change, negative = inhibition was 15.8%.

Which activity change, negative = inhibition does the source give for `COc1cc2nc(Cl)nc(N)c2cc1OC` here?
The activity change, negative = inhibition was 14.9%.

`CC[C@H](C)C(=O)O[C@H]1C[C@@H](C)C=C2C=C[C@H](C)[C@H](CC[C@@H]3C[C@@H](O)CC(=O)O3)[C@H]21` was tested. Which activity change, negative = inhibition did it give?
The activity change, negative = inhibition was 27.6%.

With `Clc1ccc(C(Cn2ccnc2)OCc2ccc(Sc3ccccc3)cc2)c(Cl)c1` (configuration not stated) as the molecule, how does the activity change, negative = inhibition read?
The activity change, negative = inhibition was -8.82%.

How did the activity change, negative = inhibition turn out when `CN(C)CCOC(c1ccccc1)c1ccc(Br)cc1` (configuration not stated) was run?
The activity change, negative = inhibition was -12.6%.

Which activity change, negative = inhibition does the source give for `COC(=O)C1=C(C)NC(C)=C(C(=O)OCCCN2CCC(c3ccccc3)(c3ccccc3)CC2)C1c1cccc([N+](=O)[O-])c1` (configuration not stated) here?
Its activity change, negative = inhibition is 25.1%.

For `Cc1cccc(C)c1NC(=O)CN(CC(=O)O)CC(=O)O`, which activity change, negative = inhibition is on record?
Its activity change, negative = inhibition is 9.3%.

Which activity change, negative = inhibition does the source give for `COC(=O)c1cc(Cl)ccc1NS(=O)(=O)C(F)(F)F` here?
The activity change, negative = inhibition was -16.3%.

`Oc1cccc2[nH]ccc12` was tested. Which activity change, negative = inhibition did it give?
The activity change, negative = inhibition was 3.48%.

How did the activity change, negative = inhibition turn out when `CO/N=C(/C(=O)N[C@@H]1C(=O)N2C(C(=O)[O-])=C(C[n+]3ccn4ncccc43)CS[C@H]12)c1nsc(N)n1` was run?
The activity change, negative = inhibition was -10.2%.

`CN(C)[C@@H]1C(=O)C(C(=O)NCN2CCCC2)=C(O)[C@@]2(O)C(=O)C3=C(O)c4c(O)cccc4[C@@](C)(O)C3C[C@@H]12` (some centres not stated) was tested. Which activity change, negative = inhibition did it give?
Its activity change, negative = inhibition is -13.9%.

Which Potency does the source give for `O=C(Cc1ccccc1)NC(=S)Nc1ccc(OC(F)F)cc1` here?
Its Potency is active: 35.5 µM.

`CCc1ccccc1NC(=S)/N=C(\N)Nc1nc(C)c2cc(C)ccc2n1` was tested. Which Potency did it give?
Its Potency is active: 35.5 µM.

With `COc1cc(C2CC(=O)N3CN(c4cccc(Cl)c4)CSC3=C2C#N)ccc1O` (configuration not stated) as the molecule, how does the Potency read?
Its Potency is active: 17.8 µM.

With `NCc1ccccc1Sc1ccccc1CO` as the molecule, how does the activity change, negative = inhibition read?
The activity change, negative = inhibition was -46%.

For `CC(=O)N[C@@H](CS)C(=O)O`, which activity change, negative = inhibition is on record?
The activity change, negative = inhibition was -39.6%.

How did the activity change, negative = inhibition turn out when `CC(C)CCCC(C)N` (configuration not stated) was run?
The activity change, negative = inhibition was -11.5%.

For `CN(C)CCn1nnnc1SCC1=C(C(=O)O)N2C(=O)[C@@H](NC(=O)Cc3csc(N)n3)[C@H]2SC1`, which activity change, negative = inhibition is on record?
Its activity change, negative = inhibition is 60.1%.

`COc1cccc(C(=O)/C(C#N)=C\c2ccccc2C(F)(F)F)c1` was tested. Which Potency did it give?
Its Potency is active: 39.8 µM.

For `CCCCCC(=O)O[C@]1(C(C)=O)CC[C@H]2[C@@H]3CCC4=CC(=O)CC[C@]4(C)[C@H]3CC[C@@]21C`, which activity change, negative = inhibition is on record?
The activity change, negative = inhibition was 19.2%.

Which activity change, negative = inhibition does the source give for `CNCCCC12CCC(c3ccccc31)c1ccccc12` here?
Its activity change, negative = inhibition is 13.3%.

With `O=C(c1cccc(Cl)c1)N1CCC(c2nn(-c3ccc(Cl)cc3)c(=O)[nH]2)CC1` as the molecule, how does the Potency read?
The Potency was active: 14.1 µM.

Which activity change, negative = inhibition does the source give for `CCN(CC)C(=O)/C(C#N)=C/c1cc(O)c(O)c([N+](=O)[O-])c1` here?
Its activity change, negative = inhibition is -7.97%.
